Data: patent US20060148057A1, “Thioredoxin mutants and uses thereof” (priority 2002, published 2006)
These are yes or no findings as the source states them, for the method shown. In cells and extracts the contact can be indirect. Some binding calls cover weakened binding; strength is not graded here.

Sequences of proteins named here, by UniProt entry; tags and fusion partners are left off.
UniProt Q99683: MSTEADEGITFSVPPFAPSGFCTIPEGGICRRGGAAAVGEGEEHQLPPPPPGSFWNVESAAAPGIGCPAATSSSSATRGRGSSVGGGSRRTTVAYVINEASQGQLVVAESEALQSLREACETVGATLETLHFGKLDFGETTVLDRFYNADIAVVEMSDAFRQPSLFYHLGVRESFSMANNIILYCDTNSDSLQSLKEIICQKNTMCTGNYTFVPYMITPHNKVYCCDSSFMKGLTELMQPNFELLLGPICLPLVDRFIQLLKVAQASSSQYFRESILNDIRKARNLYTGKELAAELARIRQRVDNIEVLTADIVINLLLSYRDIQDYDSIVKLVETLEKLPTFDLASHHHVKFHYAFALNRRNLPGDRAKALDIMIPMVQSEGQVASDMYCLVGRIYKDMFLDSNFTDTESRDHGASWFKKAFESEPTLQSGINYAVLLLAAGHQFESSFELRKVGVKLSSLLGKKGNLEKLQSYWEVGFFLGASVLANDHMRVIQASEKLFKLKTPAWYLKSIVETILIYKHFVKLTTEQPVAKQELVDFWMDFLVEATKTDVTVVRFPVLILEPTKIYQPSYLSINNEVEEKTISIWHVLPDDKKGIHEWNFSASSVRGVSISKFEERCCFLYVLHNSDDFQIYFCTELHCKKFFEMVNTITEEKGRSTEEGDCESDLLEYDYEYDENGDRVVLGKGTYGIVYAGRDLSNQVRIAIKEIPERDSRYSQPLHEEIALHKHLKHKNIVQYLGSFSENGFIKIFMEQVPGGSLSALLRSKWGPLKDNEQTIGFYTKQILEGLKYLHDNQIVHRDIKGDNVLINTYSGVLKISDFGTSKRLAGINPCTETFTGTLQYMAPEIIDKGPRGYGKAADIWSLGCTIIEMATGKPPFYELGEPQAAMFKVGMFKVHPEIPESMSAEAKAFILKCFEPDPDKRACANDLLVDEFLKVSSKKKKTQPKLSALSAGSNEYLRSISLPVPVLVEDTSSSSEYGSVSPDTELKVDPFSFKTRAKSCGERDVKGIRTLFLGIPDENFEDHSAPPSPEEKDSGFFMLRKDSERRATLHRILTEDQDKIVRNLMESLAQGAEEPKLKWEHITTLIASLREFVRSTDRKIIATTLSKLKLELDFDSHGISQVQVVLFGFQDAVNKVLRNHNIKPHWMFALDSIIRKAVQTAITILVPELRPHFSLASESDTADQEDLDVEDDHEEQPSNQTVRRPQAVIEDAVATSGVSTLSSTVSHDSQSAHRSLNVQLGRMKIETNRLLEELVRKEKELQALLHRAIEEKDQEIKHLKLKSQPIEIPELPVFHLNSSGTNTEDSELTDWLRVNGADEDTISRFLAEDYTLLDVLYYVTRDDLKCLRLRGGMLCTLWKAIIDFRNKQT

What was measured:
HA-tagged ASK1-WT = HA-tagged ASK1-WT (UniProt Q99683); assay: co-immunoprecipitation from 293T cells (anti-Flag IP/anti-HA blot and anti-HA IP/anti-Flag blot)
[1] = biological target: endogenous ASK1 of neonatal rat cardiomyocytes (rat) (UniProt D3ZZH6); assay: co-immunoprecipitation of endogenous proteins from neonatal rat cardiomyocytes
[2] = biological target: endogenous ASK1 of neonatal rat cardiomyocytes (rat) (UniProt D3ZZH6); assay: co-immunoprecipitation of endogenous proteins from neonatal rat cardiomyocytes (anti-cTnT IP/anti-ASK1 blot and the reverse; normal rabbit serum as control)

binding (HA-tagged ASK1-WT)	binding [1]	binding [2]	Substance
binds	–	–	Flag-cTnT (from UniProt P45379 1-288)
–	binds	binds	endogenous cTnT of neonatal rat cardiomyocytes (from UniProt P50753 2-299)
